Results are given in words; binding and its absence hold for the method and conditions named. In cells and extracts the contact can be indirect. Some results given as binding are weak or reduced against the parent protein; the word gives no strength.
Experiments:
[1] = molecular target: MBP-fused procaspase-8 death effector domain-A (DED-A) (UniProt Q14790); assay: pull-down; MBP-fused DED construct (bait) and E2 TAD-his6 (prey) co-expressed in E. coli BL21 (DE3); lysate in buffer-A (20 mM Na2HPO4/NaH2PO4 pH 7.8, 250 mM NaCl, 0.1 mM DTT, 1% glycerol) passed over amylose resin; 12% SDS-PAGE, Coomassie or anti-E2 immunoblot
[2] = molecular target: MBP-fused procaspase-8 death effector domain-B (DED-B) (UniProt Q14790); assay: as above
[3] = molecular target: HPV18 E2 transactivation domain (TAD), C-terminal his6 tag (human papillomavirus type 18 (HPV18)) (UniProt P06790); assay: pull-down; reverse pull-down: E2 TAD-his6 (bait) and MBP-fused DED construct (prey) co-expressed in E. coli BL21 (DE3); lysate in buffer-A passed over Ni-IDA resin; 12% SDS-PAGE, Coomassie

The chains behind the UniProt entries cited, without tags or fusion partners. A line that says so, or that is headed by a name, gives the form on record, which may keep a tag or linker. Residues count along the entry.
MBP-fused procaspase-8 death effector domain-A (DED-A) (Q14790, residues 1-80): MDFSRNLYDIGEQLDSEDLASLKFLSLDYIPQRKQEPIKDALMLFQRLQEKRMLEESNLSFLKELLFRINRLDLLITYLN
MBP-fused procaspase-8 death effector domain-B (DED-B) (Q14790, residues 100-181): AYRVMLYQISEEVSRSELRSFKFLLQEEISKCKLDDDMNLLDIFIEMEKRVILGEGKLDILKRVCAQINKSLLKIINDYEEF
UniProt P06790, residues 1-201: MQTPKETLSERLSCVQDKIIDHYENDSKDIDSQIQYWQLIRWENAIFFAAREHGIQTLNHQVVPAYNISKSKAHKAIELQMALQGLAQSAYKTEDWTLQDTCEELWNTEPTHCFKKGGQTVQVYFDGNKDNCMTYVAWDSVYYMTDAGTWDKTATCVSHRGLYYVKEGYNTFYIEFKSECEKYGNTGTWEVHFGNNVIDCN

Substance	binding [1]	binding [2]	binding [3]
HPV18 E2 transactivation domain (TAD), C-terminal his6 tag (from UniProt P06790 1-201) (domain or fragment)	binds weakly	binds	–
MBP-fused procaspase-8 death effector domain-A (DED-A) (from UniProt Q14790 1-80) (domain or fragment)	–	–	binds weakly
MBP-fused procaspase-8 death effector domain-B (DED-B) (from UniProt Q14790 100-181) (domain or fragment)	–	–	binds

— publication PMC4764946
